The data set is described as follows: Rewetting rate of sanitary napkin with top sheet coated with blood modifying agent. The following applies: horse EDTA blood 2 x 3 g at 37° C.; agent coated at about 5 g/m^2; 30 g/cm^2 for 1 minute.
Regarding `CC(C)CCCCCCCCCCCCCCCOC(=O)CC(O)C(=O)OCCCCCCCCCCCCCCCC(C)C` (centres unmarked) [Diisostearyl malate], the “Rewetting rate (%)” value came out at 5.5%.
On to `CCCCCCCCOC(=O)CCCCC(=O)OCCCCCCCC` [Dioctyl adipate], for which the “Rewetting rate (%)” value is given as 1.7%.
For `CCCCCCCCCCCCOC(=O)CCCCCCCCCCC` [ELECTOL WE20, Ester of dodecanoic acid (C12) and dodecyl alcohol (C12)] the value was 1.8%.
With `CCCCCCCCCCCCCC(=O)OCCCCCCCCCCCC` [ELECTOL WE40, Ester of tetradecanoic acid (C14) and dodecyl alcohol (C12)], the “Rewetting rate (%)” value turned out to be 1.8%.
For `CCCCCCCCCCCC(=O)OCC(O)CO` (centres unmarked) [Monomuls 90-L2 lauric acid monoglyceride, lauric acid monoglyceride], the “Rewetting rate (%)” value was found to be 6.2%.
On to `CCCCC(CC)C(=O)OCC(COC(=O)C(CC)CCCC)OC(=O)C(CC)CCCC` (centres unmarked) [PANACET 800B], for which the “Rewetting rate (%)” value is 2.0%.
Consider `CCCCCCCC(=O)OCC(COC(=O)CCCCCCC)OC(=O)CCCCCCC` [PANACET 800], for which the “Rewetting rate (%)” value is 0.3%.
On to `CCCCOC(=O)CC(CC(=O)OCCCC)(OC(C)=O)C(=O)OCCCC` [Tributyl O-acetylcitrate], for which the “Rewetting rate (%)” value was found to be 6.2%.
For `CCCCC(CC)C(=O)OCC(C)(C)COC(=O)C(CC)CCCC` (centres unmarked) [UNISTAR H-208BRS, Neopentylglycol di-2-ethylhexanoate] the value was 2.0%; for Caprylic acid diglyceride, 4.2%; for Isopropyl citrate, 12.2%.

These data come from patent US9375365B2, “Absorbent article” (UNICHARM CORPORATION, priority 2012, dated 2016).
